# Laboratory results published in the supplement of paper PMC3334620.
# In all, about 33,000 sequences were measured (“E-score (-0.5 to 0.5)”: median about -0.0034, highest 2% from about 0.25 on). This is one part of the list.
# Biological target: T1, Yap3 (UniProt P38749)
# T1 sequence: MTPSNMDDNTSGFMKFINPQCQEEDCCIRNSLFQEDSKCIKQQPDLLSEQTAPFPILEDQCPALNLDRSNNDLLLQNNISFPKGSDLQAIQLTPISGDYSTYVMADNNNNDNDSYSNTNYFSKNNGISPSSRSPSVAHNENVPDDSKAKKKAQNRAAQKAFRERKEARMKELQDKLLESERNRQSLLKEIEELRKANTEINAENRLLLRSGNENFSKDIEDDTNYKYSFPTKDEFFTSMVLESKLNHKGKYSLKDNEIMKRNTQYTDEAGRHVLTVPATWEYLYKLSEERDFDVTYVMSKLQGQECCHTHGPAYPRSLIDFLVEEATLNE
# Assay: PBM E-score (8-mer binding enrichment) (E-score (-0.5 to 0.5)); higher = stronger / more preferred TF binding
# Conditions: protein concentration: 100 nM; construct: GST-full length
# Summary of the method: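 Universal all-10-mer Agilent arrays, fresh or stripped once, were converted to double-stranded form by primer extension. GST-tagged yeast transcription factors from PURExpress in vitro transcription/translation, full-length or DNA-binding domain only, were applied at about 100-200 nM and detected with fluorescent anti-GST. After masliner normalisation, the Universal PBM Analysis Suite scored each ungapped eight-base word together with its reverse complement by E-score.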
row,Sequence,PBM E-score
1,CCGTTCTC,0.0108
2,CGCTCAAA,0.0898
3,GATAATTA,0.251
4,CACTGACG,-0.155
5,CAGAACTA,-0.0471
6,CCCAACCC,0.0611
7,ACGCCACT,-0.0148
8,CGTTAGCC,0.108
9,TAAGCGGA,9e-05
10,AGTGTACG,0.0517
11,AGCTACCG,-0.195
12,ATCCAATA,0.143
13,TATGTGCA,0.00178
14,CGCTGACG,-0.286
15,TATAAACA,0.177
16,GCATCAGA,0.136
17,AACGTCTT,0.0101
18,GTACCCTA,-0.0277
19,GTCTGCCA,-0.174
20,AATCTGCC,-0.0324
21,ACGAAACA,0.0846
22,GTCTCCGA,-0.103

row,Sequence,PBM E-score
1,ACTGGCCA,-0.0318
2,AAATTAAA,0.319
3,AATTCTCT,-0.0515
4,GTCACAAA,0.00773
5,CCCCGGAG,-0.132
6,CGCTGCAA,0.0789
7,AAGGCGCT,-0.0833
8,GCCGCTCC,-0.304
9,ACACCTGT,-0.0238
10,CAGTTTGA,0.013
11,CCCAACGG,-0.105
12,AGTTCGCA,0.0174
13,ATCGCGAC,0.209
14,AACCGCAT,0.135
15,GTGTCATA,0.113
16,CGAAGGCG,-0.0306
17,ATCTAACC,-0.00209
18,AGAGGACA,-0.133
19,CGAGCTAG,-0.0107
20,ATGACAAA,0.307
21,AATTGGCT,0.251
22,ACTAAACT,0.0886

# Reprinted at random: 7 entries already listed, in no set order.
row,Sequence,PBM E-score
8,GCCGCTCC,-0.304
18,GTACCCTA,-0.0277
22,GTCTCCGA,-0.103
16,GCATCAGA,0.136
17,AACGTCTT,0.0101
3,GATAATTA,0.251
19,CGAGCTAG,-0.0107

# Next part.

row,Sequence,PBM E-score
1,CGTTTAAC,0.178
2,ACCCGTTC,0.0741
3,CCTGAGAG,-0.184
4,AAGCCACC,-0.235
5,ATAGTTAA,0.114
6,CCGAGCCC,-0.375
7,CGCCGGTC,-0.178
8,CGAAGCGC,-0.123
9,TACTCTCA,0.079
10,GATTGTGA,0.0832
11,GACAGCTC,-0.371
12,GTTGAGCA,0.0274
13,GAAAGGAC,-0.0281
14,GCGGCAGA,-0.17
15,CGAAAGGC,-0.119
16,GACAGGCC,0.0143
17,CCCTACCA,-0.0549
18,TGGTCTAA,-0.063
19,CTACTGTA,-0.0229
20,AAAATTGA,0.194
21,AGTTTGCC,0.175
22,GCAGAGGA,-0.0322

row,Sequence,PBM E-score
1,CGTTCAAG,-0.0509
2,GGGCTGGA,-0.199
3,ACAGTGGC,0.0492
4,TACCTCGA,0.0149
5,CAGTAACG,-0.0558
6,AACACAGT,0.102
7,TCCCATAA,0.00173
8,AGGTGCTC,-0.335
9,CCACTTAA,-0.071
10,CCGCTTCC,-0.111
11,ACAGTTGC,0.042
12,ATTTACCA,0.0912
13,AGCCCCAC,-0.248
14,AAACTCGC,-0.0355
15,CATCTACG,-0.0208
16,AAGAGATC,-0.102
17,CCGGTGAA,-0.0053
18,TATGCCAA,0.0551
19,AGGTGGCA,-0.0434
20,CGGAGCTA,-0.142
21,ATAAATCA,0.207
22,AGTGGAGC,-0.0528

row,Sequence,PBM E-score
1,GCGCCGAC,-0.208
2,CCCTGCAC,-0.185
3,GCATTAGA,0.0147
4,CTACGGAA,0.068
5,AACTTGAC,0.107
6,GGATACCA,0.0865
7,GAGAGTAC,-0.0939
8,GATACCGA,-0.128
9,AAAGCCTC,-0.124
10,AGGGAGTC,-0.235
11,AAGGTCGT,0.0935
12,ACTTACTG,0.0976
13,CCGTAGCC,-0.146
14,ACCGACCG,-0.0309
15,AGTTCTAC,-0.229
16,CAATTGAC,0.084
17,CTCGAACA,-0.0158
18,CCATTGCA,0.0659
19,GAGACTCA,-0.04
20,ATTTGGCA,-0.0234
21,CCACCGCC,-0.193
